In the supplement of paper PMC10849652:
Some of the results follow.

Chains of the proteins cited; added tags and fusions are not shown. Lines headed by an entry give the natural chain unless they say otherwise; changes in a name come on top.
UniProt Q96Q11: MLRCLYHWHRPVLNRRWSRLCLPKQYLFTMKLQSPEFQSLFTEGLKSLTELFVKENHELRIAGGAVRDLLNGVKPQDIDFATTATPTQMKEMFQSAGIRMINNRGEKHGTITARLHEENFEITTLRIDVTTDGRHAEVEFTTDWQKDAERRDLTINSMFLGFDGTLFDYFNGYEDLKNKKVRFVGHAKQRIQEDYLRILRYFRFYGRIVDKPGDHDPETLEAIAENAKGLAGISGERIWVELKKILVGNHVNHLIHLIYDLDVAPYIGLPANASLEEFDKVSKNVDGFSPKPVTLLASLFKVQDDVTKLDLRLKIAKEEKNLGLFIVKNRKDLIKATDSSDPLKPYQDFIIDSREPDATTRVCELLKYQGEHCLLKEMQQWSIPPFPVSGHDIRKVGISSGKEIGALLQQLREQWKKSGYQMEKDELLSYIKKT
UniProt Q8IZ69: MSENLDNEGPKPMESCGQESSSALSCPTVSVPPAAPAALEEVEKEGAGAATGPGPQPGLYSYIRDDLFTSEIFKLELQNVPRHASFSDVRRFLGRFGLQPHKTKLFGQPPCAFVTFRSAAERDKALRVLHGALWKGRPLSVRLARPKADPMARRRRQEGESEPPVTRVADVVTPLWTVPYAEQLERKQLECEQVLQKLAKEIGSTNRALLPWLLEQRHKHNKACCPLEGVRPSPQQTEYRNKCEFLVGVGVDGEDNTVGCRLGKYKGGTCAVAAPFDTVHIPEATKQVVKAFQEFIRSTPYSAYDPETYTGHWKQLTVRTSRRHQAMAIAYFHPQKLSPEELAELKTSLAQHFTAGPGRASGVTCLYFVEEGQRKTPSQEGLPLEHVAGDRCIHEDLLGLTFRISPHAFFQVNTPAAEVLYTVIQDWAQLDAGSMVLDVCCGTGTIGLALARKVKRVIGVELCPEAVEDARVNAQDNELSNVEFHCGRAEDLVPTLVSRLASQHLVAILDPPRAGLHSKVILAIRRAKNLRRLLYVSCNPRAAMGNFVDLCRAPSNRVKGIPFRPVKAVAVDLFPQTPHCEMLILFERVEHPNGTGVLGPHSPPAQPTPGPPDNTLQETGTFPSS
UniProt Q6PID6, whole entry, looked up: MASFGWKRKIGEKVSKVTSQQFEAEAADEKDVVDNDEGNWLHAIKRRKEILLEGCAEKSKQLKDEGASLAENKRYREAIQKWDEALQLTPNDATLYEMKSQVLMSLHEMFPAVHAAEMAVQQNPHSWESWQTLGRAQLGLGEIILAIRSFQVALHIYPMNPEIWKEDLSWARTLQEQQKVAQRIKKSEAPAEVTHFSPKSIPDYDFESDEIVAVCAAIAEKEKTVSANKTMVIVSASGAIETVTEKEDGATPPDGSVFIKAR
UniProt O75648: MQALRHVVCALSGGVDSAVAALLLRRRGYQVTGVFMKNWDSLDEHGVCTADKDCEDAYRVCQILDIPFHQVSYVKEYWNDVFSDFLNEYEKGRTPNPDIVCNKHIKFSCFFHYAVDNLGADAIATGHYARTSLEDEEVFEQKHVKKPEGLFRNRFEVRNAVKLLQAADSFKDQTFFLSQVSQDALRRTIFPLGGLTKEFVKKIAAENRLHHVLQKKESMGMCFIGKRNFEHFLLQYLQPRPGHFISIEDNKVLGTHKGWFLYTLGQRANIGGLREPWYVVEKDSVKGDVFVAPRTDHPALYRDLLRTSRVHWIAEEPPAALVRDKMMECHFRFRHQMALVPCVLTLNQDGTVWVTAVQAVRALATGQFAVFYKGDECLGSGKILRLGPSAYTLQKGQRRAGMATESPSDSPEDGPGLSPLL
UniProt Q6DKK2: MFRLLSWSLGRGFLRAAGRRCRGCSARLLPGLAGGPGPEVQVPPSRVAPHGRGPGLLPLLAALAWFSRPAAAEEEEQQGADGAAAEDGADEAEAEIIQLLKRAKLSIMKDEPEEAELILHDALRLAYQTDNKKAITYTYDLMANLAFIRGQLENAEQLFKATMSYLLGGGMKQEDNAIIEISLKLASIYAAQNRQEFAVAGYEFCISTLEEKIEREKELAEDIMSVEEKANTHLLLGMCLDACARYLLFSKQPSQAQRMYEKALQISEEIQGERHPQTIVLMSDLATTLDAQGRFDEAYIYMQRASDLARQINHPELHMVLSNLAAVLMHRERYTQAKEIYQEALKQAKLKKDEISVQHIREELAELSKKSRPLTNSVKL
UniProt Q15642: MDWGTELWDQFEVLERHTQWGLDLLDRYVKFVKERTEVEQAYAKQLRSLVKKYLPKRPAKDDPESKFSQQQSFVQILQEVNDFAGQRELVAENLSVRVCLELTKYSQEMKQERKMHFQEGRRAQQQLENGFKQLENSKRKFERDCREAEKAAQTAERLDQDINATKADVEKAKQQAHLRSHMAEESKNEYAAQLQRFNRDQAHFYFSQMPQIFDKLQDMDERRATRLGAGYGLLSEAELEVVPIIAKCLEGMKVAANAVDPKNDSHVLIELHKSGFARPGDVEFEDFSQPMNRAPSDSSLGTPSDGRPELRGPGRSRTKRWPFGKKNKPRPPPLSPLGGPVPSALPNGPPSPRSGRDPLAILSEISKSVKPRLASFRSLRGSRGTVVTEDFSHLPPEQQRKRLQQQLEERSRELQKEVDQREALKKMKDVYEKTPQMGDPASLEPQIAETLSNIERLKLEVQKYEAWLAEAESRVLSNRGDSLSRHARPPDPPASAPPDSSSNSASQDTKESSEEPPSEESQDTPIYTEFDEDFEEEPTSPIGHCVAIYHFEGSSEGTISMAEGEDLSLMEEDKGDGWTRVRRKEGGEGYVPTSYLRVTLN
UniProt O15164: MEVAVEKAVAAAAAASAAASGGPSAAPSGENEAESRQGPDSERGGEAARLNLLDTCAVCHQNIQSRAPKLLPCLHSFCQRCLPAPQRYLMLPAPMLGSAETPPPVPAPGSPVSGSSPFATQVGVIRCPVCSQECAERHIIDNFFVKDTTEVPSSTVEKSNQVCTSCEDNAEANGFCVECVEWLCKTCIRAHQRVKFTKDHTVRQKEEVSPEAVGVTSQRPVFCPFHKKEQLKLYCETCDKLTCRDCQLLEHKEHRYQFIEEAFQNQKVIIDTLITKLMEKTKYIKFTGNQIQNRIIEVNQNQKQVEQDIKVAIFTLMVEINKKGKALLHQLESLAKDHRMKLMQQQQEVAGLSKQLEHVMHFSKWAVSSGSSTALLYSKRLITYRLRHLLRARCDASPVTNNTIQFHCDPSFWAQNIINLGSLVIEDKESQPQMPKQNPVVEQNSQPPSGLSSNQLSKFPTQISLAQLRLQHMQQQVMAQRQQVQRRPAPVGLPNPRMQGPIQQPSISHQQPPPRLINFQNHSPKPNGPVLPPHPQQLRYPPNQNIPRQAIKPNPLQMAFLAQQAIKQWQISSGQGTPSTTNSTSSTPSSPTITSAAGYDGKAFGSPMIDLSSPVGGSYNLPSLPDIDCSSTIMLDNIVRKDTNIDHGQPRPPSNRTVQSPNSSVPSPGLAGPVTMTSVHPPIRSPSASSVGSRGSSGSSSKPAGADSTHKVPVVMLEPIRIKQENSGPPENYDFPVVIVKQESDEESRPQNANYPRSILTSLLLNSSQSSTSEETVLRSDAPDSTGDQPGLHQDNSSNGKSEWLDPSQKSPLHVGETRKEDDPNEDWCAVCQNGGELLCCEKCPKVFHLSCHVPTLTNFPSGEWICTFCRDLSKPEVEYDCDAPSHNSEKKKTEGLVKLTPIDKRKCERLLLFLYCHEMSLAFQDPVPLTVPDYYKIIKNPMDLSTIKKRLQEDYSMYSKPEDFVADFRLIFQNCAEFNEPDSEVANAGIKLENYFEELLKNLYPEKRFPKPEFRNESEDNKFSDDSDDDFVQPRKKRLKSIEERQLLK
UniProt O75865, whole entry, looked up: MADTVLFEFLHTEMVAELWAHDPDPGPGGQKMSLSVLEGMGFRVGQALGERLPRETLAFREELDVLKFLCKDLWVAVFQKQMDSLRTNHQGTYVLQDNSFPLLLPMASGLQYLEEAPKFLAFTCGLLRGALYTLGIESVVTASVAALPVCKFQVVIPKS
UniProt Q13049: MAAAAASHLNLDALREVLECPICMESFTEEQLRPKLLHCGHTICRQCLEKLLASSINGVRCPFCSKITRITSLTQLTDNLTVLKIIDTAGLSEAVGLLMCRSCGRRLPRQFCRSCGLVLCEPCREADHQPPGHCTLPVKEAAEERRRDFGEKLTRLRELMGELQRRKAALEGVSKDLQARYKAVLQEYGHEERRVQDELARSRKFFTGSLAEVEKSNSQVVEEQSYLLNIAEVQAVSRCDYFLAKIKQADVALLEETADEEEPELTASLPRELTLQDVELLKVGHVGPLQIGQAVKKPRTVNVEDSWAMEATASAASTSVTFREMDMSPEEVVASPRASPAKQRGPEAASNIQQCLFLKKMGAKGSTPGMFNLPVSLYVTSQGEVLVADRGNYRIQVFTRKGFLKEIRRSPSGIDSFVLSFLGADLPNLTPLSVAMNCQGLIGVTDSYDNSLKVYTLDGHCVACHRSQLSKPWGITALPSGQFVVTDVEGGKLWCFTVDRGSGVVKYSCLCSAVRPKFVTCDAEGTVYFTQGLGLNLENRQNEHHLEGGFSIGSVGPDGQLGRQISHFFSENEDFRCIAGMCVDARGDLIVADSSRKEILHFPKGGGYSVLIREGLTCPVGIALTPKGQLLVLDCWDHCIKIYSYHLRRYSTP
UniProt Q9BSV6: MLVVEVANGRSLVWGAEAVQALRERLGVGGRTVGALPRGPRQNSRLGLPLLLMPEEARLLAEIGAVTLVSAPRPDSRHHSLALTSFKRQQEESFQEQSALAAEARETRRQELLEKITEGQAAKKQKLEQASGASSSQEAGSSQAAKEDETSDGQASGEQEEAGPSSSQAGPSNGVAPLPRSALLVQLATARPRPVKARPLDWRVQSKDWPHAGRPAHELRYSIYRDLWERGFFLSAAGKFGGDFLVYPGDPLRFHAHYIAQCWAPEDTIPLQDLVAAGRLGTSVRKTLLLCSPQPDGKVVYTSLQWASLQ
UniProt O43617, whole entry, looked up: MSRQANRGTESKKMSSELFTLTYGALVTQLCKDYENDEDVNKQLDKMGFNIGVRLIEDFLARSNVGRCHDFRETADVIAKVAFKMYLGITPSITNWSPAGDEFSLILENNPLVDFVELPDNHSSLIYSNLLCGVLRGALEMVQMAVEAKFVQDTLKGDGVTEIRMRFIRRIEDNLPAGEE
UniProt P36406: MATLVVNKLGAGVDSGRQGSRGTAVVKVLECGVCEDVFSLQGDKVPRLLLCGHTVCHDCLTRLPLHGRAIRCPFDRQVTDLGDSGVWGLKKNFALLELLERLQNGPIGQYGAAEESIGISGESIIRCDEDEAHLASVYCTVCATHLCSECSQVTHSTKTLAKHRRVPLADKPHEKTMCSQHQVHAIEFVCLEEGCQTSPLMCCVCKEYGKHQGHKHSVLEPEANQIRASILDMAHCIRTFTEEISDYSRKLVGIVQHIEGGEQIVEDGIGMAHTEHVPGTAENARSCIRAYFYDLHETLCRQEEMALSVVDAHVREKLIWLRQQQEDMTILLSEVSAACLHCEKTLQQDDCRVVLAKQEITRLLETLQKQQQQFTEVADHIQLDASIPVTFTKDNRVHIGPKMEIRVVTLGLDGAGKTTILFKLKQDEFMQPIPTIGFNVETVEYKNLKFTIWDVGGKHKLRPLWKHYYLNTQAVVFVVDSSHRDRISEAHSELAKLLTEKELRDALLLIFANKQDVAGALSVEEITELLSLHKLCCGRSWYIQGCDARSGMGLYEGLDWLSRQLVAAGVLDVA
UniProt Q15650: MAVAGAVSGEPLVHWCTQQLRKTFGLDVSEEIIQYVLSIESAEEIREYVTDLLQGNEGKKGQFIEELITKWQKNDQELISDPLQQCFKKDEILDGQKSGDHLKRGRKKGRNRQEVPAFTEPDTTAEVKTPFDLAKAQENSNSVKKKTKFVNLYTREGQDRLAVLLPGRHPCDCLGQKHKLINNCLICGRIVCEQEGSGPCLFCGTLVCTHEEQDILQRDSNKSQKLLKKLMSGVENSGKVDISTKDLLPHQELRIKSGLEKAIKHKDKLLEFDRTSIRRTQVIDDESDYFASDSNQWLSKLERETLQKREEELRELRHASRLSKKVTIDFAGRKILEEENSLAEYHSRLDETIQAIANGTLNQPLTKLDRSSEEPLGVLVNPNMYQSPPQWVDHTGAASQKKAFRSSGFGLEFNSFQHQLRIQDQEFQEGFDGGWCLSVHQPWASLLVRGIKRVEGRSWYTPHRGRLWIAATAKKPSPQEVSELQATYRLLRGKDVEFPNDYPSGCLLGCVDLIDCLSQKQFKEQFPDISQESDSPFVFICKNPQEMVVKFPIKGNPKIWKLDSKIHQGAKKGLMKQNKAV
UniProt Q86SZ2: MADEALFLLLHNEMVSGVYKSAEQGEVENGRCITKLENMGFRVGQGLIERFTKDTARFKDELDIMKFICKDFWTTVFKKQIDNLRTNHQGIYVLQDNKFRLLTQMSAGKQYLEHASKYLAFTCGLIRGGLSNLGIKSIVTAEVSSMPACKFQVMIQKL

Compound: C=CC(=O)N1CCC[C@@H](n2nc(-c3ccc(Oc4ccccc4)cc3)c3c(N)ncnc32)C1 [ibrutinib]
Assay: log2 fold change, soluble protein after heating vs DMSO (PISA); higher = thermal stabilisation; K562 lysate, 10 uM; active = over 0.2 and 3.5 SD of the protein, either way, in both replicates (recomputed)
Method in brief: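 To prepare the extract, K562 pellets were dounce-homogenised in PBS pH 7.4 with 1 mM MgCl2, giving crude material at 1 mg/mL protein. This was treated with 10 μM compound for 30 min, then heated in aliquots for 3 min over 48°C-58°C before pooling and addition of NP-40 to 0.5% at 4°C. Centrifugation at 21,000xg for 90 min left soluble protein in the supernatant, which TMTpro 16plex LC-MS/MS quantified with equalised channel sums. Results are log-two fold changes in thermal stability compared with solvent controls, from duplicates.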

log2 fold change, inactive:
TRAP1 (UniProt Q12931) -0.002, TTI1 (UniProt O43156) 0, TRNT1 (UniProt Q96Q11) 0.008, TSEN54 (UniProt Q7Z6J9) 0.075, TSN (UniProt Q15631) 0.019, TRMT2A (UniProt Q8IZ69) 0.002, TTC33 (UniProt Q6PID6) 0.108, TRMU (UniProt O75648) -0.012, TSC22D1 (UniProt Q15714) -0.099, TTC19 (UniProt Q6DKK2) -0.006, TRIM11 (UniProt Q96F44) 0.008, TRIP10 (UniProt Q15642) 0.031, TRIM24 (UniProt O15164) 0.078, TRIM28 (UniProt Q13263) 0.008, TRMT1 (UniProt Q9NXH9) 0.011, TRIM44 (UniProt Q96DX7) 0.031, TRAPPC6A isoform 2 (UniProt O75865) -0.023, TRIP10 isoform 2 (UniProt Q15642) -0.085, TRIM32 (UniProt Q13049) 0.036, TSG101 (UniProt Q99816) 0.007, TSTA3 (UniProt Q13630) 0.02, TRIP6 (UniProt Q15654) 0.001, TTLL12 (UniProt Q14166) -0.018, TRAPPC8 (UniProt Q9Y2L5) -0.028, TRAF4 (UniProt Q9BUZ4) -0.154, TSEN34 (UniProt Q9BSV6) 0.058, TRAPPC3 (UniProt O43617) 0.049, TRIM23 (UniProt P36406) -0.031, TRAPPC9 isoform 2 (UniProt Q96Q05) 0.003, TRUB1 (UniProt Q8WWH5) -0.063, TRIP4 (UniProt Q15650) 0, TRAFD1 (UniProt O14545) -0.026, TRAPPC6B (UniProt Q86SZ2) 0.01
